Data as given in publication PMC12324573.

Sequences of proteins named here, by UniProt entry; tags and fusion partners are left off. A change or cut given only in a name is not applied to a line headed by its entry.
UniProt Q39057: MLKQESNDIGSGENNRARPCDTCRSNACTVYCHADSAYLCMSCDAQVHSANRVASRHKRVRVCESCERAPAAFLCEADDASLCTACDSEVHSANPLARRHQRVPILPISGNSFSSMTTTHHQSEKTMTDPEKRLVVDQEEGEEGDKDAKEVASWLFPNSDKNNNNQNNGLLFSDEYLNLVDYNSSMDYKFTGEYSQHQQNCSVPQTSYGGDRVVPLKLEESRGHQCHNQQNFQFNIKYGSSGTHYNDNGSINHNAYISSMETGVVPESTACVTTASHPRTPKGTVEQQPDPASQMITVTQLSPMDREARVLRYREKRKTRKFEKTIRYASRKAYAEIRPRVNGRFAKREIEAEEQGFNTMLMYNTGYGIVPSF
UniProt Q6NLH4: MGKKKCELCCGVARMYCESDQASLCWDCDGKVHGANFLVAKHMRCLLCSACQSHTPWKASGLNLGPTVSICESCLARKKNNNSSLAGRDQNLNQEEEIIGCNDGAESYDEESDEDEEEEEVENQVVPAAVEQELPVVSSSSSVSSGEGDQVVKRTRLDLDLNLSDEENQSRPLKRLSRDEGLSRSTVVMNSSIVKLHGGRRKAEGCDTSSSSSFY

Target: CO-cLUC expressed from CO:CO-cLUC in Arabidopsis (Arabidopsis) (UniProt Q39057)
Test: split reporter; in vivo split-LUC in stable transgenic Arabidopsis, own promoters; two-week-old plants sprayed with 2.5 mM D-luciferin, photon counting and imaging during transfer from 22/22°C to 12/22°C long days

binding: binds
Substance: BBX29-nLUC expressed from BBX29:BBX29-nLUC in Arabidopsis (from UniProt Q6NLH4)

No constants are given. Whether binding was seen depends on the method and setting. Binding seen in cells or lysates may run through a third protein. A result given as binding can be weak or reduced; the word gives no strength.
